Reference: the supplement of paper PMC12872613
Structures can show the parent of a compound that is named as a salt. Some of the results follow. Rule as the data show it: active = 0.7 or more and inactive = the rest. Single values are uncertain, as repeats are few or missing.

System: MiaPaCa-2 CLSA-25
Test: cell death relative to DMSO vehicle (fraction); higher = more cytotoxic
Details: 5 µM; treatment time 48 h; medium cystine 25 µM

Row | Structure (SMILES) | cell death
1 | OCc1ccccc1 [Benzyl alcohol] | inactive: 0.291
2 | O=C(NCCN1CCOCC1)Nc1ccc(C(=O)/C=C/c2cccc(N3CCOCC3)n2)cc1 | inactive: 0.63
3 | C[C@H]1C[C@@H]2[C@H]([C@@H](O)C[C@@]3(C)[C@H]2CC[C@]3(O)C(=O)CO)[C@@]2(C)C=CC(=O)C=C12 [Methylprednisolone] | inactive: 0.112
4 | Cc1nc2ccc(NC(=O)Nc3ccnc4cccnc34)cc2o1 | inactive: 0.139
5 | O=C(O)c1nn(Cc2ccc(Cl)cc2Cl)c2ccccc12 [Lonidamine] | inactive: -0.00803
6 | CC(=O)OCC(=O)[C@@]12N=C(C)O[C@@H]1C[C@H]1[C@@H]3CCC4=CC(=O)C=C[C@]4(C)[C@H]3[C@@H](O)C[C@@]12C [Deflazacort] | inactive: 0.123
7 | C[C@@H]1C[C@H]2[C@@H]3C[C@H](F)C4=CC(=O)C=C[C@]4(C)[C@@]3(F)[C@@H](O)C[C@]2(C)[C@@]1(O)C(=O)CO [Flumethasone] | inactive: 0.155
8 | CN1CCN(C(=O)C2C(C(=O)O)[C@H]3CC[C@@H]2O3)CC1 (some centres not stated) | inactive: 0.203
9 | COc1ccccc1N1CCN(CCN(C(=O)C2CCCCC2)c2ccccn2)CC1 | inactive: 0.147
10 | Cc1cc(CC(=O)O)n(C)c1C(=O)c1ccc(Cl)cc1 [Zomepirac Sodium] | inactive: 0.17
11 | N[C@@H](CC(=O)N1CCn2c(nnc2C(F)(F)F)C1)Cc1cc(F)c(F)cc1F [Sitagliptin] | active: 0.714
12 | CCc1ccc(CCOc2ccc(CC3SC(=O)NC3=O)cc2)nc1 (configuration not stated) [Pioglitazone hydrochloride] | active: 0.843
13 | COc1cc([C@H]2OC[C@H]3[C@@H]2CO[C@@H]3c2ccc(O[C@@H]3O[C@H](CO)[C@@H](O)[C@H](O)[C@H]3O)c(OC)c2)ccc1O[C@@H]1O[C@H](CO)[C@@H](O)[C@H](O)[C@H]1O [Pinoresinol diglucoside] | inactive: 0.112
14 | CC(C)=CCC[C@](C)(O[C@@H]1O[C@H](CO)[C@@H](O)[C@H](O)[C@H]1O)[C@H]1CC[C@]2(C)[C@@H]1[C@H](O)C[C@@H]1[C@@]3(C)CC[C@H](O)C(C)(C)[C@@H]3[C@@H](O)C[C@]12C [Ginsenoside F1] | inactive: 0.473
15 | O=c1cc(-c2ccccc2)oc2cc(O)c(O)c(O)c12 [Baicalein] | inactive: 0.0621
16 | NCc1c[nH]c(=S)n1[C@H]1CCc2c(F)cc(F)cc2C1 [Nepicastat HCl] | inactive: 0.181
17 | O=C(NNc1ccccc1)c1ccncc1 [PluriSln 1] | inactive: 0.164
18 | CC[C@H](CC#N)OC(=O)N[C@@H](C)c1cccc(NC(=O)Nc2ccc(-c3cnco3)c(OC)c2)c1 | inactive: 0.333
19 | CC(C)(Oc1ccc(CCNC(=O)c2ccc(Cl)cc2)cc1)C(=O)O [Bezafibrate] | inactive: 0.0163
20 | CCOc1cc(NC(C)=O)ccc1C(=O)OC [Ethopabate] | inactive: 0.135
21 | O=C1c2ccccc2C(=O)C1c1ccccc1 [Phenylindione] | inactive: 0.00508
22 | Cc1ccc(S(=O)(=O)NC(=O)NN2CCCCCC2)cc1 [Tolazamide] | inactive: -0.00669

Exported comma-delimited: entries from further up.
Row,Structure (SMILES),cell death
7,C[C@@H]1C[C@H]2[C@@H]3C[C@H](F)C4=CC(=O)C=C[C@]4(C)[C@@]3(F)[C@@H](O)C[C@]2(C)[C@@]1(O)C(=O)CO [Flumethasone],inactive: 0.155
8,CN1CCN(C(=O)C2C(C(=O)O)[C@H]3CC[C@@H]2O3)CC1 (some centres not stated),inactive: 0.203
